The values below come from PMC12402400.

Sequences of proteins named here, by UniProt entry; tags and fusion partners are left off.
UniProt Q9WTU3: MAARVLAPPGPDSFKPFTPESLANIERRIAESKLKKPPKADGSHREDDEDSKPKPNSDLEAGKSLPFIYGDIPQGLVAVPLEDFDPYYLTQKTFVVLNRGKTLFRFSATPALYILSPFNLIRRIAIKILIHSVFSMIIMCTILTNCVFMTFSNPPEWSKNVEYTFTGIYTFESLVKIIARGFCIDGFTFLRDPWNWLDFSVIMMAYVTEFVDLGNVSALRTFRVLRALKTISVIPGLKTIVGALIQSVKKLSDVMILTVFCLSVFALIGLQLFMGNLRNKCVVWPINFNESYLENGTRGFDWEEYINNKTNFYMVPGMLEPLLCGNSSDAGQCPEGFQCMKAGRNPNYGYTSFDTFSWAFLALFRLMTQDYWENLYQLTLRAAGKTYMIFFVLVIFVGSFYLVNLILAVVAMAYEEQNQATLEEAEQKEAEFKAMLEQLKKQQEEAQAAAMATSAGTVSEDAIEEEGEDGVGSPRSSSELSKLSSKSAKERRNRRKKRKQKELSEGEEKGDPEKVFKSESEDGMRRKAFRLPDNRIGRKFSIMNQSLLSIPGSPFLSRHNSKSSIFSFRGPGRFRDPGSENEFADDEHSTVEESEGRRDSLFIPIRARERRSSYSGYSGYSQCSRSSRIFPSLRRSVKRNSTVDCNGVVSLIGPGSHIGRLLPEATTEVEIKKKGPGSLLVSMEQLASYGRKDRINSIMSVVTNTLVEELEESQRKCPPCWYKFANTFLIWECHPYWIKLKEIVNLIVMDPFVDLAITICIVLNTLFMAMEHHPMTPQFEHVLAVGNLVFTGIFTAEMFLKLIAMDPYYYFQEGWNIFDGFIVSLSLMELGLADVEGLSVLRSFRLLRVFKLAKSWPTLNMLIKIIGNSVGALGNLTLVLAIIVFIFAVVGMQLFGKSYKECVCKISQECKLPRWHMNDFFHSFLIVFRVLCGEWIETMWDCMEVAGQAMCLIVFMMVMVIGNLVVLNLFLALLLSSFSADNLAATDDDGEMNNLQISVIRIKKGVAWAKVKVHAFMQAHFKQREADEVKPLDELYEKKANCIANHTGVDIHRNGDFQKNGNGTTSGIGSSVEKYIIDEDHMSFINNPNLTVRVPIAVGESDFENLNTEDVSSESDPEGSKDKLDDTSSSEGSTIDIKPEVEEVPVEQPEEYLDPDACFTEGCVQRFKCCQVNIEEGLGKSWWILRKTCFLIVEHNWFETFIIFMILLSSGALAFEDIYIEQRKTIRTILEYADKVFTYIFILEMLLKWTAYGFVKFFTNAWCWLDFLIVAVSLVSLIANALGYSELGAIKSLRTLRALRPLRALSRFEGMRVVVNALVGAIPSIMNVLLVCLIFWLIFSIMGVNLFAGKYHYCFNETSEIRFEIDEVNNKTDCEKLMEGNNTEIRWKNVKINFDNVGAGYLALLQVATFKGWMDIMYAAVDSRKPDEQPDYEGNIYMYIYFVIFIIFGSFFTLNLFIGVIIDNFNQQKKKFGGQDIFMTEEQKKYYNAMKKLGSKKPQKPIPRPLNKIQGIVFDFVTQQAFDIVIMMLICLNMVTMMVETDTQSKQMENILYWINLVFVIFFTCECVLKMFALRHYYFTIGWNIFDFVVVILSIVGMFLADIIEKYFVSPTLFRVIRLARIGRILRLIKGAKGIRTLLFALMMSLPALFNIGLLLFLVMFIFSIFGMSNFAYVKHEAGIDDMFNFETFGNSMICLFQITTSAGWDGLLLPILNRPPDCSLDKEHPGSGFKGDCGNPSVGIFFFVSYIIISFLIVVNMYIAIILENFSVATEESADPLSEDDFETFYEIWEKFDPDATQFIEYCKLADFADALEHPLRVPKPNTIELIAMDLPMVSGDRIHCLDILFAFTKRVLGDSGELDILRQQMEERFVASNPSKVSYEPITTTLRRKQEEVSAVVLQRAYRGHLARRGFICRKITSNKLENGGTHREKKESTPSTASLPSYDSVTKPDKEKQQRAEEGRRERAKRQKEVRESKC

These are yes or no findings as the source states them, for the method shown. In cells and extracts the contact can be indirect. Some entries that bind do so weakly or less than the wild type.

This assay addresses Voltage-gated sodium channel Nav1.6 (UniProt Q9WTU3). The assay can be described thus: co-IP; from total protein lysates with anti-Nav1.6 or anti-Tn-R antibodies, then immunoblotting with the corresponding antibodies.

B1: Tenascin-R (protein, UniProt Q8BYI9 32-1358)
chain: RLEVTTERAQRQTVEEEGGASSYNTSSKEQPMVFNHVYNINVPLESLCSSGLEASAEQDMSAEDDTLAEYIGQTSDHESQVTFTHKINLPKKACPCASSSQVLQELLSRIEMLEREVSLLRDQCNTNCCQESAATGQLDYVPHCSGHGNFSFESCGCICNEGWFGKNCSEPYCPLGCSSRGVCVDGQCICDSEYSGDDCSELRCPTDCSSRGLCVDGECVCEEPYTGEDCRELRCPGDCSGKGQCANGTCLCQEGYAGEDCSQRRCLNACSGRGHCQEGLCICEEGYQGPDCSAVAPPEDLRVAGISDRSIELEWDGPMAVTEYVISYQPTALGGLQLQQRVPGDWSGVTIMELEPGLTYNISVYAVISNILSLPITAKVATHLSTPQGLQFKTITETTVEVQWEPFSFSFDGWEISFIPKNNEGGVIAQLPSDVTSFNQTGLKPGEEYIVNVVALKEQARSPPTSASVSTVIDGPTQILVRDVSDTVAFVEWTPPRAKVDFILLKYGLVGGEGGKTTFRLQPPLSQYSVQALRPGSRYEVSISAVRGTNESEASSTQFTTEIDAPKNLRVGSRTATSLDLEWDNSEAEAQEYKVVYSTLAGEQYHEVLVPKGIGPTTKTTLTDLVPGTEYGVGISAVMNSKQSIPATMNARTELDSPRDLMVTASSETSISLIWTKASGPIDHYRITFTPSSGISSEVTVPRDRTSYTLTDLEPGAEYIISITAERGRQQSLESTVDAFTGFRPISHLHFSHVTSSSVNITWSDPSPPADRLILNYSPRDKEEDMLEVLLDATKRHAVLMGLQPATEYIVNLVAVHGTVTSEPIVGSITTGIDPPKNITISNVTKDSLTVSWSSPVAPFDYYRVSYRPTQVGRLDSSVVPNTVTEFAITRLYPATEYEISLNSVRGREESERICTLVHTAMDSPMDLIATNITPTEALLQWKAPMGEVENYVIVLTHFAIAGETILVDGVSEEFQLVDLLPSTHYTVTMYATSGPLMSGTIATNFSTLLDPPDNLTASEVTRQSALISWQPPRAAIENYVLTYKSTDGSRKELIVDAEDTWIRLEGLSENTDYTVLLQAAQEATRSSLTSTVFTTGGRVFSHPQDCAQHLMNGDTLSGVYTIFLNGELSHKLQVYCDMTTDGGGWIVFQRRQNGQTDFFRKWADYRVGFGNLEDEFWLGLDNIHRITAQGRYELRVDMRDGQEAVFAYYDKFAVEDSRSLYKIRIGSYNGTAGDSLSYHQGRPFSTEDRDNDVAVTNCAMSYKGAWWYKNCHRTNLNGKYGESRHSQGINWYHWKGHEFSIPFVEMKMRPYIHRLTAGRKRRALKF
As to B1, the binding result is listed as “binds”.
